From the supplement of paper PMC6411743
± gives the standard deviation of the averaged measurements. This is a selection; strong and weak results do not stand in their true shares. Most entries show no effect beyond the scatter of the controls.

Protein sequences, listed by entry. Tags and fused reporters are not part of them. Lines headed by an entry give the natural chain unless they say otherwise; changes in a name come on top.
UniProt Q4ADV7: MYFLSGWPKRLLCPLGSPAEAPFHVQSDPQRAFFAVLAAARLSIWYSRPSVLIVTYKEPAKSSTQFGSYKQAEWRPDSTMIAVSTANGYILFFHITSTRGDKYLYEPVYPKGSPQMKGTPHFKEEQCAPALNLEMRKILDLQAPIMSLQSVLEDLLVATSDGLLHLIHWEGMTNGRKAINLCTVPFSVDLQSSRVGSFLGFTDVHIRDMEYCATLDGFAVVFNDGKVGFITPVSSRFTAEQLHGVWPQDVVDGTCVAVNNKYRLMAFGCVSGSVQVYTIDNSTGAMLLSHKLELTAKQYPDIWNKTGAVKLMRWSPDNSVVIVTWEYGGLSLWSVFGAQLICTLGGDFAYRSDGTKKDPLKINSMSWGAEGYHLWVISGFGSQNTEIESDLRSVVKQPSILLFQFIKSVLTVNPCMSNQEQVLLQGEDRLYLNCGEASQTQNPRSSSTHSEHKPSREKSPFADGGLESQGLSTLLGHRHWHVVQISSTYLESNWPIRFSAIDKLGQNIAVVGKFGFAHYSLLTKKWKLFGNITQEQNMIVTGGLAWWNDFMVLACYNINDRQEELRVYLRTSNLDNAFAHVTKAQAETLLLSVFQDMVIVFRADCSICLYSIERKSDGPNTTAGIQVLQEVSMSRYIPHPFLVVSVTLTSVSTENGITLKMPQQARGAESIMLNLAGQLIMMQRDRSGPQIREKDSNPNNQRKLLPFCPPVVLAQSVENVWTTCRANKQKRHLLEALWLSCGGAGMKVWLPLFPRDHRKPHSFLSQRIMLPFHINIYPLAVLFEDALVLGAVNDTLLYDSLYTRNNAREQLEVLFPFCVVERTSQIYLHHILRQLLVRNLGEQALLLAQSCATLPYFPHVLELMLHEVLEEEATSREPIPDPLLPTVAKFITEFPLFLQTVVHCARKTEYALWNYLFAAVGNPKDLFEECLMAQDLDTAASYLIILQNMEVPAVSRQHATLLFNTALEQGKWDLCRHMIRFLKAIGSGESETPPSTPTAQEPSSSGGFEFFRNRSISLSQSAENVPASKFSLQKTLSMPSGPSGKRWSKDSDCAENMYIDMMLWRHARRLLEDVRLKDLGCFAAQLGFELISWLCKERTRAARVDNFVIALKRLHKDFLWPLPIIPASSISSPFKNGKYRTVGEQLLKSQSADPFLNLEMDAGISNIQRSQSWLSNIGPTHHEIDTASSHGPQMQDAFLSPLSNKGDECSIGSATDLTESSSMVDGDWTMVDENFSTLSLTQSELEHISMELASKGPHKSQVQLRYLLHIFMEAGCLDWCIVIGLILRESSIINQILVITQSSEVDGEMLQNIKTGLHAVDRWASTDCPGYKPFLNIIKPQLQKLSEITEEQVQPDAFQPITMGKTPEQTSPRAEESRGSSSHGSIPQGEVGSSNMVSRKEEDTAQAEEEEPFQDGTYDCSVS
UniProt Q8IVH4: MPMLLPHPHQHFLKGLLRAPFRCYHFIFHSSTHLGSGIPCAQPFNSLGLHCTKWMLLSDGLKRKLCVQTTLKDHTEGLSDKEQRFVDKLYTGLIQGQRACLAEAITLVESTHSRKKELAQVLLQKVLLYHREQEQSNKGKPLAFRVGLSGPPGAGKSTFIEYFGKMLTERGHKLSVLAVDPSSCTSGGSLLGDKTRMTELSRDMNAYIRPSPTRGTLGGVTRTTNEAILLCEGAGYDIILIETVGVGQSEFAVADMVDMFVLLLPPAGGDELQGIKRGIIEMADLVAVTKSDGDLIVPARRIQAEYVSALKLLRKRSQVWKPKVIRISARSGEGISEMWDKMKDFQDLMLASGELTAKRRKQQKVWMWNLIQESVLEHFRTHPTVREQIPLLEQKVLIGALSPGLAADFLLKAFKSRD
UniProt Q15361: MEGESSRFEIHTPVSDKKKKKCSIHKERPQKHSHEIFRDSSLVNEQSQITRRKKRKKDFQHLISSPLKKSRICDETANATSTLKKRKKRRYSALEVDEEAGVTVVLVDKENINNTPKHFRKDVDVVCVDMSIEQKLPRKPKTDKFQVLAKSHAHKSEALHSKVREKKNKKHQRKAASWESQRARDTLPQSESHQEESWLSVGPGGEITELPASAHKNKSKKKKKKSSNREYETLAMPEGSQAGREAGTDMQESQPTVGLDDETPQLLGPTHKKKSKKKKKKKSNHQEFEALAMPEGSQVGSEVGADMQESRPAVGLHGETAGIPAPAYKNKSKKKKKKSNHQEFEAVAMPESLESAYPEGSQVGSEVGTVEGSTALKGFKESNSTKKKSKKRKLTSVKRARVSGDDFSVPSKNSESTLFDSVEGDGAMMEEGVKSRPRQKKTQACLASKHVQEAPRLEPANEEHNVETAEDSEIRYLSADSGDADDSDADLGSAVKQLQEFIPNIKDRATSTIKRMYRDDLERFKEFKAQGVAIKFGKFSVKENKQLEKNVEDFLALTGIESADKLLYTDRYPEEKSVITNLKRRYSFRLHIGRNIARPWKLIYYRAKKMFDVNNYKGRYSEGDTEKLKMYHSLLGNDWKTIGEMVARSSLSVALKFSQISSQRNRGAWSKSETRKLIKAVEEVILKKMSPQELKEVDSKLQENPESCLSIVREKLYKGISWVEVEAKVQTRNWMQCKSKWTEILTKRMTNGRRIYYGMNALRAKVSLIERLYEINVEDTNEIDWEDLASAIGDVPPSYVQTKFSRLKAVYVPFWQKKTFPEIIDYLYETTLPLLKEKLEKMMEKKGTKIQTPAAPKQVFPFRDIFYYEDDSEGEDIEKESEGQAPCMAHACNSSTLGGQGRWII
UniProt Q15527: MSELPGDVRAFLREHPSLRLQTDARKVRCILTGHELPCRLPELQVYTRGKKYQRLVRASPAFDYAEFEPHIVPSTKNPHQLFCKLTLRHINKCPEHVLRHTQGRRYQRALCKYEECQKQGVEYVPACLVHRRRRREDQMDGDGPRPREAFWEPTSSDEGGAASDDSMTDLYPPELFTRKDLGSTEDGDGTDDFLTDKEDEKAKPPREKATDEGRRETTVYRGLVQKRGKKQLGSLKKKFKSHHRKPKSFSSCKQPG
UniProt Q16698: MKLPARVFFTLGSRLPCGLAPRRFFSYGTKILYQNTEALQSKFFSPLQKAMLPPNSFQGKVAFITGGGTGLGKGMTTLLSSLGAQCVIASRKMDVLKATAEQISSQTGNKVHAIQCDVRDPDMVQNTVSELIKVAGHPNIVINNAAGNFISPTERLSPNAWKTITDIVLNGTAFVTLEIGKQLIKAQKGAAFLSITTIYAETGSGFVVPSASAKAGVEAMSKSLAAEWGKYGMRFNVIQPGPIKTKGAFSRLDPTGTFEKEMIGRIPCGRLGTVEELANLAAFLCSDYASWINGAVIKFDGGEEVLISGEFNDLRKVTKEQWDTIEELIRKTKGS
UniProt Q147X3: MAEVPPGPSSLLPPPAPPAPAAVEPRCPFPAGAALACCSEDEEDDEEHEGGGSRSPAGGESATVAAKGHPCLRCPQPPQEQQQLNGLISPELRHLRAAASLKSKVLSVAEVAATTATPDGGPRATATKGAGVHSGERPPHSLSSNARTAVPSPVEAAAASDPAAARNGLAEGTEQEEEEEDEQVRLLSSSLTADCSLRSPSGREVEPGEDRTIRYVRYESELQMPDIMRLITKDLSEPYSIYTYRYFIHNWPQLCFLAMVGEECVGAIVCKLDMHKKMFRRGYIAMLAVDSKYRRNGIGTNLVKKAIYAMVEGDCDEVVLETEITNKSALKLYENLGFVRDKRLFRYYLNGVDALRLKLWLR
UniProt Q2TAA5: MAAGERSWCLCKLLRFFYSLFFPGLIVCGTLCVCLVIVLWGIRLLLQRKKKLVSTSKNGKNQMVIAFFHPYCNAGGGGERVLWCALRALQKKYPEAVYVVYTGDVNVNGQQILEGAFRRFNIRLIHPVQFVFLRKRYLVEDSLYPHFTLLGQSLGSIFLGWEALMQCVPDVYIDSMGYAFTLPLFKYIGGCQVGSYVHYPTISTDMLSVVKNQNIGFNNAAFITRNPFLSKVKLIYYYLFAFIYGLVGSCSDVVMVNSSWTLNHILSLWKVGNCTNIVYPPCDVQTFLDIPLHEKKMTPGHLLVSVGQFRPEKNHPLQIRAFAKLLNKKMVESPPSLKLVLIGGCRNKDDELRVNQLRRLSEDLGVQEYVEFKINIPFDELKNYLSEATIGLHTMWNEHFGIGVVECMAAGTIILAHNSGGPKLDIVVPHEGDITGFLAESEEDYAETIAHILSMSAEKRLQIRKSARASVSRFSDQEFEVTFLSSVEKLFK
UniProt Q14344, whole entry: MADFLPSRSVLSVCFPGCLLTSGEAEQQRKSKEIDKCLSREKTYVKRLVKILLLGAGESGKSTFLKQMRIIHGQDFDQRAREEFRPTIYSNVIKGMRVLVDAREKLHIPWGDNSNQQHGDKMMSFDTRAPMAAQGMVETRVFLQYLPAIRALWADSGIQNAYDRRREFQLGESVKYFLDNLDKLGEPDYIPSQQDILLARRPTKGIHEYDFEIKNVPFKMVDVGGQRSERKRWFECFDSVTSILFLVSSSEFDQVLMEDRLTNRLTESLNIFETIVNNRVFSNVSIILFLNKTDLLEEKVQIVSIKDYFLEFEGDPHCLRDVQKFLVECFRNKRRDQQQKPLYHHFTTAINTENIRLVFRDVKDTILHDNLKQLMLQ
UniProt Q15691: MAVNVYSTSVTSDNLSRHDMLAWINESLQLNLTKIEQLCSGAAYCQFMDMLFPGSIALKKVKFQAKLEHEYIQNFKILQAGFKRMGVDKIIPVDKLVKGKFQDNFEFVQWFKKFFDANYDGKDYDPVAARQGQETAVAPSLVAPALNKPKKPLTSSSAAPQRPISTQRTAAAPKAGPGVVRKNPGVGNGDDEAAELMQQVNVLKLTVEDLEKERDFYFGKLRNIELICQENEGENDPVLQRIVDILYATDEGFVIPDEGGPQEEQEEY
UniProt Q14596: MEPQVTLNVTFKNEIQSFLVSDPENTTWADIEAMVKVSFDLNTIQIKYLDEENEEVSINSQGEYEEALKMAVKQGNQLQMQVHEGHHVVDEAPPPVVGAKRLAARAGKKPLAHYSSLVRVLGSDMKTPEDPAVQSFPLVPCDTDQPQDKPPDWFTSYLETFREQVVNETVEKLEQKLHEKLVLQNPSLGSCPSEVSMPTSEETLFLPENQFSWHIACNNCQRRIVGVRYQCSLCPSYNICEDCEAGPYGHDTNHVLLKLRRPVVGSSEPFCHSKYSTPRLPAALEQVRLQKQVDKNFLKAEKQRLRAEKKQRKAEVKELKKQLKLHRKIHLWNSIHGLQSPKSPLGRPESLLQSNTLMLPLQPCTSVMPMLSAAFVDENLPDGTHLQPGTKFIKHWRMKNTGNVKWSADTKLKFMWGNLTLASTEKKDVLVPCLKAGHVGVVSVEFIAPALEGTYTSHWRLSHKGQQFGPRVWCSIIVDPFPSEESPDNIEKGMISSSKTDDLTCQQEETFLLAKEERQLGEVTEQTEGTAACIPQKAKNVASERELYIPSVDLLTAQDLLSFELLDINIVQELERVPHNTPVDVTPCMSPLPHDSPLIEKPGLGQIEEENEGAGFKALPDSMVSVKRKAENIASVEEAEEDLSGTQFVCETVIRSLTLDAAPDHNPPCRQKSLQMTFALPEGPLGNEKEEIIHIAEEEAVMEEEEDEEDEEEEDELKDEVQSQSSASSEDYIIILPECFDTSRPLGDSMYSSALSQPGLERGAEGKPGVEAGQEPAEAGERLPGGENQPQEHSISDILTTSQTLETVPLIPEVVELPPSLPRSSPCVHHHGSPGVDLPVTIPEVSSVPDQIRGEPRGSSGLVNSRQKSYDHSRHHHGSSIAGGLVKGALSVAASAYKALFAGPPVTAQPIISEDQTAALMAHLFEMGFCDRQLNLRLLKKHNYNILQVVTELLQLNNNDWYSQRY
UniProt Q15744: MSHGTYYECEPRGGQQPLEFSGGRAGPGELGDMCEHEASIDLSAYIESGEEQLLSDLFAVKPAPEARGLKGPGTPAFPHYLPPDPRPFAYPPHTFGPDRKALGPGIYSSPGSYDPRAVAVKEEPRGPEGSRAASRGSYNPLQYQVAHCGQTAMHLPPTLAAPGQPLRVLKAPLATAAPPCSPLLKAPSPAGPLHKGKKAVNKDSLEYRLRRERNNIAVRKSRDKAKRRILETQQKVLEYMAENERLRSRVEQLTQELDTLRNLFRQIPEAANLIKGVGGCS
UniProt Q16644, whole entry, looked up: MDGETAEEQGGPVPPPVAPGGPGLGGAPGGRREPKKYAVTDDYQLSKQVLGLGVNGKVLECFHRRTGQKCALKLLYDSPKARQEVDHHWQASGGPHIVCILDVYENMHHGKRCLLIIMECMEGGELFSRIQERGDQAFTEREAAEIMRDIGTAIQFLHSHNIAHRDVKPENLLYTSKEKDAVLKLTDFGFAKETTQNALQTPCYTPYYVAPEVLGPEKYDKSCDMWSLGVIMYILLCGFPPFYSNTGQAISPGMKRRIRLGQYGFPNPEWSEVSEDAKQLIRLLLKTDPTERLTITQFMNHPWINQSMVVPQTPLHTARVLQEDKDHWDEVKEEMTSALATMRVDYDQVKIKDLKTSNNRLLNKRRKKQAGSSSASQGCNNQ

Compound: Nc1ncnc2c1ncn2[C@@H]1O[C@H](COP(=O)(O)OP(=O)(O)OP(=O)(O)O)[C@@H](O)[C@H]1O [adenosine triphosphate]
Experiment: NP40-soluble protein abundance relative to vehicle (solubility fold change) (ratio); higher = more soluble protein in presence of ATP
Method in brief: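 Data come from three independent experiments in which Dounce-homogenised Jurkat crude lysate was treated at eight concentrations from 0.1 to 10 mM. Treatment ran 10 min at room temperature and then 3 min at 37 °C, after which 0.8% NP40 and benzonase were added for 60 min at 4 °C before ultracentrifugation. The supernatant underwent TMT labelling and LC-MS/MS, and vsn-normalised intensities were expressed as fold change against the detergent-processed vehicle in each replicate.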

Target	NP40-soluble protein abundance (concentration: 0.1mM)	NP40-soluble protein abundance (concentration: 0.5mM)
TERF2 (UniProt Q15554)	0.9877 ± 0.005	1.06 ± 0.053
SF3A2 (UniProt Q15428)	1 ± 0.018	1.06 ± 0.045
MLEC (UniProt Q14165)	1.02 ± 0.053	1.02 ± 0.025
UniProt Q14790-2|Q14790-4|Q14790-6|Q14790-9|Q14790-5	1.05 ± 0.056	1.07 ± 0.069
UniProt Q17R31 and related entries	1.01 ± 0.047	1.01 ± 0.049
UBE2S (UniProt Q16763)	0.984 ± 0.033	0.985 ± 0.011
UniProt Q15555 and related entries	0.932 ± 0.017	0.918 ± 0.012
UniProt Q4ADV7 and related entries	0.989 ± 0.12	0.97 ± 0.088
Q495G5 and related entries (UniProt Q8IVH4)	1 ± 0.015	0.995 ± 0.038
TTF1 (UniProt Q15361)	0.938 ± 0.086	0.87 ± 0.14
SURF2 (UniProt Q15527)	0.915 ± 0.071	0.886 ± 0.072
UniProt Q16698 and related entries	0.993 ± 0.0084	0.99 ± 0.03
UniProt Q15750 and related entries	0.9946 ± 0.0011	1.03 ± 0.065
TRIP13 (UniProt Q15645)	1.05 ± 0.06	1.05 ± 0.013
UniProt Q14671 and related entries	0.961 ± 0.048	0.947 ± 0.028
UniProt Q3YEC7 and related entries	0.998 ± 0.032	0.985 ± 0.038
ZYX (UniProt Q15942)	0.972 ± 0.017	0.993 ± 0.051
UniProt Q2PPJ7 and related entries	1.04 ± 0.052	0.967 ± 0.047
UniProt Q147X3	0.989 ± 0.037	0.988 ± 0.032
SLMAP (UniProt Q14BN4)	1.01 ± 0.011	0.985 ± 0.047

Nothing new here: entries from further up.
Target	NP40-soluble protein abundance (concentration: 0.1mM)	NP40-soluble protein abundance (concentration: 0.5mM)
UniProt Q14671 and related entries	0.961 ± 0.048	0.947 ± 0.028
UniProt Q3YEC7 and related entries	0.998 ± 0.032	0.985 ± 0.038
ZYX (UniProt Q15942)	0.972 ± 0.017	0.993 ± 0.051

Remaining list, next part.

Target	NP40-soluble protein abundance (concentration: 0.1mM)	NP40-soluble protein abundance (concentration: 0.5mM)
NCOA6 (UniProt Q14686)	0.96 ± 0.024	0.969 ± 0.04
UBXN2B (UniProt Q14CS0)	0.997 ± 0.019	0.856 ± 0.079
UniProt Q15398-3|Q15398	1.014 ± 0.0041	0.988 ± 0.057
UniProt Q15788 and related entries	0.952 ± 0.028	0.982 ± 0.018
UniProt Q15286 and related entries	1.05 ± 0.068	1.05 ± 0.04
UniProt Q15291 and related entries	0.977 ± 0.046	0.994 ± 0.021
ZNF146 (UniProt Q15072)	1.05 ± 0.08	1.08 ± 0.1
HSDL1 (UniProt Q3SXM5)	1.06 ± 0.11	1.02 ± 0.081
DYNC1H1 (UniProt Q14204)	1.06 ± 0.067	1.04 ± 0.036
TSC22D1 (UniProt Q15714)	0.883 ± 0.16	0.956 ± 0.18
SPA17 (UniProt Q15506)	0.925 ± 0.19	0.875 ± 0.026
DDB1 (UniProt Q16531)	1.04 ± 0.093	1.04 ± 0.05
RAB11B (UniProt Q15907)	1.1 ± 0.16	1.03 ± 0.072
UniProt Q14653 and related entries	1.01 ± 0.036	0.995 ± 0.011
ALG11 (UniProt Q2TAA5)	1.07 ± 0.16	0.997 ± 0.15
UniProt Q14687 and related entries	0.958 ± 0.027	0.972 ± 0.054
UniProt Q4J6C6 and related entries	1.06 ± 0.08	1.06 ± 0.04
UniProt Q3L8U1 and related entries	1 ± 0.016	1 ± 0.011
GNA13 (UniProt Q14344)	1.04 ± 0.064	1.07 ± 0.087
RRS1 (UniProt Q15050)	0.965 ± 0.12	0.956 ± 0.067

Target	NP40-soluble protein abundance (concentration: 0.1mM)	NP40-soluble protein abundance (concentration: 0.5mM)
UniProt Q3T8J9-3	1.09 ± 0.056	0.979 ± 0.052
UniProt Q15424 and related entries	0.985 ± 0.063	0.945 ± 0.048
ATP6AP1 (UniProt Q15904)	0.948 ± 0.074	0.9504 ± 0.0065
MAPRE1 (UniProt Q15691)	0.908 ± 0.045	0.926 ± 0.047
TWISTNB (UniProt Q3B726)	1.08 ± 0.023	1.09 ± 0.21
UniProt Q16563-2|Q16563	0.897 ± 0.087	0.92 ± 0.066
SAFB2 (UniProt Q14151)	0.992 ± 0.071	0.96 ± 0.051
UniProt Q14318-2|Q14318	0.996 ± 0.039	1.01 ± 0.028
FAM98C (UniProt Q17RN3)	0.989 ± 0.039	0.949 ± 0.078
SLC1A5 (UniProt Q15758)	0.955 ± 0.033	0.889 ± 0.015
C2orf68 (UniProt Q2NKX9)	0.945 ± 0.022	0.9027 ± 0.0057
UniProt Q14444	1.03 ± 0.023	1.04 ± 0.043
ITPR2 (UniProt Q14571)	1.04 ± 0.038	1.08 ± 0.022
UniProt Q15020 and related entries	1.01 ± 0.033	1.04 ± 0.072
UniProt Q14596 and related entries	1.05 ± 0.21	0.956 ± 0.098
CEBPE (UniProt Q15744)	0.93 ± 0.097	0.871 ± 0.098
IAH1 (UniProt Q2TAA2)	1.03 ± 0.036	1.01 ± 0.037
ELAVL1 (UniProt Q15717)	1.01 ± 0.03	1.02 ± 0.037
UniProt Q3B7T1	0.9772 ± 0.0078	1.01 ± 0.024
MAPKAPK3 (UniProt Q16644)	0.994 ± 0.034	0.999 ± 0.057
